No constants are given. Whether binding was seen depends on the method and setting. Binding seen in cells or lysates may run through a third protein. Some results given as binding are weak or reduced against the parent protein; the word gives no strength.

Results on four substances are retold here after article PMC12279179.

Assay [1] has as its target GST-PABP1 (UniProt P11940). Put plainly: pull-down; 10 µg purified GST fusion protein incubated with HEK-293T cell lysates expressing PABP1-Myc or DDX3-Flag for 8 h at 4 °C; precipitated with GSH Magnetic Agarose Beads; blots with anti-GST, anti-Myc, anti-Flag; only the target purified.
The target in assay [2] is DDX3-Flag (UniProt O00571). Put plainly: co-IP; ectopically expressed DDX3-Flag (or its mutants) and Myc-PABP1 in HEK293T cells; which tag was precipitated is not told.
The target of assay [3] is GST-DDX3 (UniProt O00571). As to the kind of experiment: pull-down; 10 µg purified GST fusion protein incubated with HEK-293T cell lysates expressing PABP1-Myc or DDX3-Flag for 8 h at 4 °C; precipitated with GSH Magnetic Agarose Beads; blots with anti-GST, anti-Myc, anti-Flag; only the target purified.
Assay [4] has as its target Flag-DDX3 (UniProt O00571). Put plainly: co-IP; BHK-21 cells with or without siPABP1 treatment, transfected with Flag-DDX3 for 24 h, lysed, immunoprecipitated with anti-Flag antibody; immunoblotting. For orientation: In western blotting, separated proteins are transferred to a membrane and probed.
In assay [5] the target is GST-DDX3 (UniProt O00571). Put plainly: pull-down; recombinant GST-DDX3 (GST as control) in BHK-21 cell lysate; immunoblotting; only the target purified.

With DDX3-Flag (from UniProt O00571 1-662), the binding result in assay [1] is given as “binds”. On to Myc-PABP1 (from UniProt P11940 1-636), for which the binding entry in assay [2] and in assay [3] was “binds” throughout. Consider PABP1 (from UniProt A0A3L7ISI1 1-636), for which the binding result in assay [4] was “binds”. As for eIF3A (from UniProt A0A8C2LEX6 1-1361), the binding entry in assay [5] and in assay [4] was “binds” in each case.
